Paper PMC5996148
Several values for one entry are separate records, joined by “and”; a condition that tells them apart may be missing. Identical values can stand only once. The list shows a part of the results. For some assays here: Construct or isoform of the protein are uncertain.

What was measured:
Test in all cases: protein microarray (ProtoArray v5.0), streptavidin-Alexa Fluor 647
Conditions in all cases: 3'-biotin; 20 mM Tris (pH 7.5), 5 mM MgCl2, 100 mM KCl, 0.1% Tween-20, A/T-rich and random oligonucleotide blockers; temperature not stated; high values mean tight binding
FAU = FAU (UniProt P62861)
FBP1 (human) = system: FBP1 (human)
FBXL16 = target: T1, FBXL16 (UniProt Q8N461)
T1 sequence: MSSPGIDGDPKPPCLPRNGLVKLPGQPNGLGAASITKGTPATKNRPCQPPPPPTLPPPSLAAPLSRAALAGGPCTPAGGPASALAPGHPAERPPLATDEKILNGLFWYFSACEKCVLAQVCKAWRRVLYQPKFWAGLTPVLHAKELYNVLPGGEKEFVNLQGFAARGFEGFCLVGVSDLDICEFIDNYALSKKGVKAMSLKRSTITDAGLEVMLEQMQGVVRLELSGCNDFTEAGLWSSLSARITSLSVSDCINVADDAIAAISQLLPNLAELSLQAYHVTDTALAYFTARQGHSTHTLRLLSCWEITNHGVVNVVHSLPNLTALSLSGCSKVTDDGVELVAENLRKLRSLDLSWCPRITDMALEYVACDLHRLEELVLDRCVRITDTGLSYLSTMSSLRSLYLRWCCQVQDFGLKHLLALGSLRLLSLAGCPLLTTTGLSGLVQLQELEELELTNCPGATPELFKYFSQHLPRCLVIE

FBXL2 (human) = system: FBXL2 (human)
FBXO21 (human) = system: FBXO21 (human)
FBXO22 (human) = system: FBXO22 (human)
FBXO25 (human) = system: FBXO25 (human)
FBXO3 (human) = system: FBXO3 (human)
FBXO36 = target: T2, FBXO36 (UniProt Q8NEA4)
T2 sequence: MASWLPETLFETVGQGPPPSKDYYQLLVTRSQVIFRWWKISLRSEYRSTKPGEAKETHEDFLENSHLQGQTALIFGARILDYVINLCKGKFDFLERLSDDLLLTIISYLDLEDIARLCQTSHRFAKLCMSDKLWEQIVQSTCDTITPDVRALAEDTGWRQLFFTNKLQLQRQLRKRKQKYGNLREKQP

FBXO38 (human) = system: FBXO38 (human)
FBXO4 (human) = system: FBXO4 (human)
FBXO6 (human) = system: FBXO6 (human)
FBXO7 (human) = system: FBXO7 (human)
FCGR2B (human) = system: FCGR2B (human)
FCGR3A (human) = system: FCGR3A (human)
FCRL1 (human) = system: FCRL1 (human)
FCRL2 (human) = system: FCRL2 (human)
FDFT1 (human) = system: FDFT1 (human)
FES (human) = system: FES (human)
FEZ1 (human) = system: FEZ1 (human)

Question: With “GGGAGGCTGAGGCAGG [G4-1 biotinylated (PQS2)]” as the sequence, how does the binding signal (FAU) read?
Answer: 6.01 z-score

Question: And the binding signal (FBP1 (human))?
Answer: -0.347 z-score

Question: And the binding signal (FBXL16)?
Answer: -0.272 z-score and -0.338 z-score

Question: And the binding signal (FBXL2 (human))?
Answer: -0.323 z-score

Question: What about the binding signal (FBXO21 (human)) of the same sequence?
Answer: -0.308 z-score

Question: And the binding signal (FBXO22 (human))?
Answer: -0.314 z-score

Question: What about the binding signal (FBXO25 (human)) of the same sequence?
Answer: -0.297 z-score

Question: What about the binding signal (FBXO3 (human)) of the same sequence?
Answer: -0.286 z-score

Question: What about the binding signal (FBXO36) of the same sequence?
Answer: -0.316 z-score

Question: What about the binding signal (FBXO38 (human)) of the same sequence?
Answer: -0.322 z-score

Question: What about the binding signal (FBXO4 (human)) of the same sequence?
Answer: -0.345 z-score

Question: What about the binding signal (FBXO6 (human)) of the same sequence?
Answer: -0.337 z-score

Question: What about the binding signal (FBXO7 (human)) of the same sequence?
Answer: -0.241 z-score

Question: What about the binding signal (FCGR2B (human)) of the same sequence?
Answer: -0.325 z-score

Question: What about the binding signal (FCGR3A (human)) of the same sequence?
Answer: -0.314 z-score

Question: What about the binding signal (FCRL1 (human)) of the same sequence?
Answer: -0.298 z-score

Question: What about the binding signal (FCRL2 (human)) of the same sequence?
Answer: -0.328 z-score

Question: What about the binding signal (FDFT1 (human)) of the same sequence?
Answer: -0.334 z-score and -0.329 z-score

Question: What about the binding signal (FES (human)) of the same sequence?
Answer: -0.234 z-score

Question: What about the binding signal (FEZ1 (human)) of the same sequence?
Answer: -0.315 z-score
